At least one compound was matched to its structure with a doubt left.
Test system: cardiac allograft rejection
Assay: Heart transplant rejection mouse model (C57/BL6 heart into Balb/c recipient, total MHC mismatch)
Format: in vivo, mice
Conditions: rapamycin alone, 0.3 mg/kg/day for three days following surgery; untreated controls rejected after ten days; p<0.001

CO[C@H]1C[C@@H]2CC[C@@H](C)[C@@](O)(O2)C(=O)C(=O)N2CCCC[C@H]2C(=O)O[C@H]([C@H](C)C[C@@H]2CC[C@@H](O)[C@H](OC)C2)CC(=O)[C@H](C)/C=C(\C)[C@@H](O)[C@@H](OC)C(=O)[C@H](C)C[C@H](C)/C=C/C=C/C=C/1C [rapamycin]
delay in the onset of rejection: two to three

From US20100233158A1, “INDUCTION OF IMMUNE TOLERANCE” (Genzyme Corporation, priority 2002, published 2010)
